Values joined by “and” are separate entries in the source; they are usually repeats but may differ in a detail not shown here. Equal values may be shown once. In all, about 300,000 compounds went through this assay and about 5,400 (1.8%) were called active. The inconclusive results got no clear call from the source; some entries with a clear call stand among them for comparison. Calls follow the shape of the full dose curve; tested in HEK293 cells. Where the call is inconclusive, the potency comes from a doubtful curve fit.
Assay: qHTS for inhibitors of binding or entry into cells for Marburg Virus
Details: Marburg virus pseudotyped entry inhibition, cell reporter; activity change, negative = inhibition: at 37.8 µM (top of the series) unless noted
% is scaled to controls: 0 for no effect and ±100 for the full control effect; potency is read from the fitted curve at half-maximal effect.

Q: Which Potency does the source give for `Cc1ccc(C(=O)Nc2ccc(S(=O)(=O)N(Cc3ccccc3)c3ccccc3)cc2)cc1` here?
A: inconclusive: 6.31 µM [inhibitor, single point]

Q: For `CC(C)CN(C(=O)CN(C)C(=O)Cc1ccc(Cl)cc1)c1c(N)n(CC(C)C)c(=O)[nH]c1=O`, which “activity change, negative = inhibition” value is on record?
A: inactive: -8.73%

Q: With `Cc1cc(C)cc(OCCCCCNCCO)c1` as the molecule, how does the Potency read?
A: inconclusive: 29.1 µM [inhibitor, single point]

Q: With `Cc1cc(C)cc(NC(=O)N2CCC(NC(=O)c3ccco3)CC2)c1` as the molecule, how does the Potency read?
A: inconclusive: 17.8 µM [activator, single point]

Q: For `COc1ccc(N(C)S(=O)(=O)c2cccc(C(=O)NC3CCCCC3C)c2)cc1` (centres undefined), which Potency is on record?
A: inconclusive: 11.2 µM [inhibitor, partial curve]

Q: For `Cn1cccc1Cc1nnc(SCC(=O)Nc2cccc(F)c2)n1CCc1ccccc1`, which Potency is on record?
A: inconclusive: 8.2 µM [inhibitor, partial curve, poor fit]

Q: Which Potency does the source give for `CCOC(=O)c1ccc(NC(=O)CN(C)S(=O)(=O)c2ccc(Br)s2)cc1` here?
A: inactive and inconclusive: 103 nM [inhibitor, full curve, poor fit]

Q: For `O=C(N/N=C/c1ccc(-c2cccc(C(F)(F)F)c2)o1)c1cccc(F)c1`, which Potency is on record?
A: inconclusive: 29.1 µM [inhibitor, single point]

Q: With `CN(C)c1ccc(C=c2c3ccccc3n3c2c2c([n+]3C)CCCC2)cc1` as the molecule, how does the Potency read?
A: active: 4.47 µM

Q: Which Potency does the source give for `COc1cc(COCC(O)CN2CCN(CCN3C(=O)c4cccc5cccc(c45)C3=O)CC2)cc(OC)c1OC` (centres undefined) here?
A: inconclusive: 4.61 µM [inhibitor, partial curve, poor fit]

Q: Which Potency does the source give for `c1ccc(OCc2cc(-c3ccccc3)no2)cc1` here?
A: inconclusive: 35.5 µM [activator, single point]

Q: With `CC(C)c1ccc(NC(=S)NN2C(C)CCCC2C)cc1` (centres undefined) as the molecule, how does the Potency read?
A: inconclusive: 0.794 µM [inhibitor, full curve, poor fit]

Q: Which “activity change, negative = inhibition” value does the source give for `CC(C)(C)C(=O)/C(C#N)=C/c1cccs1` here?
A: inactive: 6.94%

Q: Which Potency does the source give for `Cc1ccc(N2C(=O)C(CC(=O)Nc3ccc(F)cc3)N(Cc3ccc4c(c3)OCO4)C2=O)cc1` (centres undefined) here?
A: inconclusive: 11.2 µM [inhibitor, partial curve, poor fit]

Q: Which Potency does the source give for `COc1ccc(Br)cc1C(=O)Nc1cccc2ncccc12` here?
A: inconclusive: 29.1 µM [inhibitor, single point]

Q: For `Nc1nonc1-n1nnc(C(=O)N/N=C/c2ccc(Cl)cc2Cl)c1CN1CCCC1`, which “activity change, negative = inhibition” value is on record?
A: inactive: 3.25% [at 46.1 µM]

Q: Which Potency does the source give for `Cc1ccc2cccc(S(=O)(=O)N3CCN(c4cccc(Cl)c4)CC3)c2n1` here?
A: inconclusive: 5.8 µM [inhibitor, single point]

Q: Which Potency does the source give for `COc1cc(CN2CCC(Cc3ccccc3)CC2)c([N+](=O)[O-])cc1OC` here?
A: inconclusive: 20 µM [inhibitor, partial curve, poor fit]

Q: With `O=C(COC(=O)Cc1cccs1)Nc1ccccc1` as the molecule, how does the “activity change, negative = inhibition” value read?
A: inactive: 21.3%

Q: With `COc1ccc(S(=O)(=O)N2CCN(C(=O)Cc3ccsc3)CC2)cc1` as the molecule, how does the “activity change, negative = inhibition” value read?
A: inactive: 18.3%

Q: For `O=C(c1cccc([N+](=O)[O-])c1)c1ccc2c(c1)OCCOCCOCCO2`, which Potency is on record?
A: inconclusive: 11.2 µM [activator, single point]

Q: With `CCN1CCN(c2ccc(NC(=O)c3ccccc3F)cc2Cl)CC1` as the molecule, how does the Potency read?
A: inconclusive: 4.47 µM [activator, single point]

Q: For `CCN1CCN(c2nc(-c3cccnc3)nc3ccccc23)CC1`, which Potency is on record?
A: inconclusive: 29.1 µM [inhibitor, single point]

Q: With `COc1cccc(CNC(=O)c2cc(COc3c(F)cccc3F)on2)c1` as the molecule, how does the “activity change, negative = inhibition” value read?
A: inactive: 19.1% [at 46.1 µM]

Q: Which Potency does the source give for `CN(CC(=O)NC(=O)Nc1ccccc1F)Cc1ccccc1` here?
A: inconclusive: 14.1 µM [activator, partial curve, poor fit]

Q: With `Cc1nc(NC(=O)CSc2cc(C)c3ccccc3n2)c(Cl)cc1Cl` as the molecule, how does the Potency read?
A: inconclusive: 11.2 µM [inhibitor, partial curve, poor fit]

Q: For `CO/C=C\C=C/c1nnn(-c2ccc(Cl)cc2)n1`, which Potency is on record?
A: inconclusive: 20 µM [activator, partial curve, poor fit]

Q: Which Potency does the source give for `O[C@@H]1CN(Cc2cccs2)[C@@H](c2ccccc2)C[C@@H]1n1cc(C2CC2)nn1` here?
A: inconclusive: 5.6 µM [inhibitor, partial curve, poor fit]

Q: For `COc1ccc(/C=C/c2onc(C)c2S(=O)(=O)N2CCC(C(=O)N3CCCCCC3)CC2)cc1`, which Potency is on record?
A: inconclusive: 35.5 µM [inhibitor, single point]

Q: Which “activity change, negative = inhibition” value does the source give for `O=C(Nc1ccc(C(=O)N2CCCC2)cc1)c1ccccc1F` here?
A: inactive: -10.1%

Q: With `Cc1nc2nc(NCc3cccs3)nn2c(C)c1Cl` as the molecule, how does the Potency read?
A: inconclusive: 25.9 µM [activator, single point]

Q: For `COc1ccc2c(Sc3ccc(C)cc3)c(C(=O)NC(C)c3ccccc3)[nH]c2c1` (centres undefined), which Potency is on record?
A: inconclusive: 17.8 µM [inhibitor, partial curve, poor fit]

Q: Which Potency does the source give for `O=C(O)c1cccc(NC(=S)N/N=C/c2ccccc2OCc2ccc(Br)cc2)c1` here?
A: inconclusive: 3.16 µM [activator, full curve, poor fit]

Q: With `CCc1nnc(N/N=C/c2ccc(-c3ccc([N+](=O)[O-])cc3)o2)n1N` as the molecule, how does the Potency read?
A: inconclusive: 6.31 µM [activator, single point]

Q: With `CCc1c(C)nc2c(-c3ccccc3)c(C)nn2c1Nc1ccc(NC(C)=O)cc1` as the molecule, how does the Potency read?
A: inconclusive: 17.8 µM [inhibitor, partial curve, poor fit]

Q: For `COc1ccc(Nc2nc(N)nc(CSc3n[nH]c(-c4ccccc4)n3)n2)cc1`, which Potency is on record?
A: inconclusive: 35.5 µM [inhibitor, single point]

Q: Which Potency does the source give for `COc1cccc(C(=O)Nc2ccc3c(c2)OCO3)c1OC` here?
A: inconclusive: 31.6 µM [inhibitor, single point]

Q: With `O=C(O)CCSCC(=O)c1ccc2c(c1)OCCO2` as the molecule, how does the Potency read?
A: inconclusive: 10 µM [inhibitor, partial curve, poor fit]

Q: For `COc1ccc(NC(C)C(=O)N/N=C/c2cc(Br)ccc2OC)cc1` (centres undefined), which Potency is on record?
A: inconclusive: 3.55 µM [inhibitor, single point]

Q: For `CC(C)c1ccc(OCC(=O)NC(C)c2ccccc2)cc1` (centres undefined), which “activity change, negative = inhibition” value is on record?
A: inactive: 1.81%

Q: With `CN1C(=O)/C(=C/c2ccc(Cl)s2)C(=O)NC1=S` as the molecule, how does the “activity change, negative = inhibition” value read?
A: inactive: 3.41% [at 46.1 µM]

Q: Which Potency does the source give for `Cc1cccc(N/C=C/C(=C(C#N)C#N)N(C)C)c1` here?
A: inconclusive: 5.62 µM [activator, single point]

Q: For `CC(C)(C)SCCNC(=O)c1cccc([N+](=O)[O-])c1`, which Potency is on record?
A: inconclusive: 6.31 µM [inhibitor, single point]

Q: Which Potency does the source give for `CCc1cc(SC#N)cc(C)c1NC(=O)CCl` here?
A: inconclusive: 16.4 µM [inhibitor, single point]

Q: Which Potency does the source give for `CC12CCC(C(=O)Nc3c(Cl)cccc3Cl)(C(Br)C1=O)C2(C)C` (centres undefined) here?
A: inconclusive: 2.59 µM [inhibitor, partial curve, poor fit]

Q: Which Potency does the source give for `Cc1cc(C)cc(NC(=O)Cn2cc(C=O)c3ccccc32)c1` here?
A: inconclusive: 3.55 µM [inhibitor, full curve]

Q: Which Potency does the source give for `CCn1c(=O)c2cc(C(=O)NCCN(C)C)sc2c2ccccc21` here?
A: active: 7.08 µM

Q: Which Potency does the source give for `CC1=CC2=NC(=O)CC(C)(C(=O)N(CC(=O)NC3CCCC3)Cc3ccccc3)N2C=C1` (centres undefined) here?
A: inconclusive: 1.26 µM [activator, partial curve, poor fit]

Q: With `COc1ccccc1CC(=O)Nc1ccc(NC(=O)c2cccs2)cc1` as the molecule, how does the Potency read?
A: inconclusive: 35.5 µM [activator, single point]

Q: Which Potency does the source give for `C(#C[C@@H]1C=C[C@H]2OC(c3ccccc3)OC[C@H]2O1)c1ccccc1` (some centres undefined) here?
A: inconclusive: 0.668 µM [activator, partial curve, poor fit]

Q: With `Nc1c(-c2ccc(Cl)cc2)cnc2c(-c3ccccc3)cnn12` as the molecule, how does the Potency read?
A: inconclusive: 11.2 µM [inhibitor, single point]

Q: For `CN1CCN(CC(=O)N2c3ccccc3C(=O)Nc3cccnc32)CC1`, which Potency is on record?
A: inconclusive: 398 nM [inhibitor, full curve] and inconclusive: 14.6 µM [activator, single point]

Q: For `O=C1NCCN/C1=C\C(=O)c1ccc(Cl)cc1`, which Potency is on record?
A: inconclusive: 2 µM [activator, partial curve, poor fit]

Q: For `COC(=O)C1=C(c2ccccc2OCc2ccccc2)C[C@@H]2CC[C@H]1N2C(=O)NCCOc1ccccc1Cl`, which “activity change, negative = inhibition” value is on record?
A: inactive: 1.23%

Q: With `COc1cc(CN(C2CCCCC2C)S(=O)(=O)c2ccc(S(=O)(=O)NC3CC3)cc2)cc(OC)c1OC` (centres undefined) as the molecule, how does the Potency read?
A: active: 10.3 µM

Q: Which Potency does the source give for `Cc1cc(S(=O)(=O)Nc2cc(C)c(O)c(C)c2)c(C)s1` here?
A: inconclusive: 3.66 µM [inhibitor, single point]

Q: With `O=C(c1c[nH]c(C(=O)C(Cl)(Cl)Cl)c1)c1ccc(F)cc1Cl` as the molecule, how does the Potency read?
A: inconclusive: 10 µM [inhibitor, partial curve, poor fit]

Q: For `O=C(Cn1c(=O)c2sccc2n(Cc2cccc([N+](=O)[O-])c2)c1=O)NCCc1ccccc1`, which Potency is on record?
A: inconclusive: 0.631 µM [inhibitor, full curve]

Q: For `CC(C)Nc1oc(-c2ccccc2)nc1C=Cc1ccccc1`, which Potency is on record?
A: inconclusive: 1.19 µM [activator, single point]

Q: With `COc1ccc2occ(NC(C)=O)c2c1` as the molecule, how does the “activity change, negative = inhibition” value read?
A: inactive: -0.674%

Q: Which Potency does the source give for `CSCCC(NS(=O)(=O)c1cccc(C(F)(F)F)c1)C(=O)Nc1ccccc1N1CCCC1` (centres undefined) here?
A: inconclusive: 35.5 µM [inhibitor, single point]

Q: For `COc1cc(/C=C(\C#N)C(=O)Nc2cccc(C(=O)O)c2)ccc1OCc1ccc(C)cc1`, which “activity change, negative = inhibition” value is on record?
A: inactive: -6.88% [at 46.1 µM]

Q: With `Cc1cc(C(=O)Nc2ccc(Cl)cc2)c(C)n1Cc1cccs1` as the molecule, how does the Potency read?
A: inconclusive: 5.01 µM [inhibitor, full curve, poor fit]

Q: For `CC(C)(C)C(=O)CSc1nc2c(c(-c3cccs3)c1C#N)CCC2`, which “activity change, negative = inhibition” value is on record?
A: inactive: -0.991%
